Laboratory results: PMC10163288
The list shows a part of the results.

B1: il10ra_site1_sap_15_mot_HHH_b1_04592_af2_000000261_0001_39_52_H_._HHH_b1_07996_0001_0000100010_0000001_0_0001 (protein)
chain: SSSSETEKAARIAMEAVRLAIQLGDEEIFQELWELFKLVIREGDPEVTERLEELLEELRERSSSS
B2: il10ra_site1_normal_mot_HHH_b1_05357_000000034_0001_23_39_H_._HHH_b1_01707_af2_0001_0000200005_0000002_0 (protein)
chain: SSSSDEEERRRLEEEVERALEEGDPELASHIVIQLYALAHQLNDPELEELAKELARLVAQLSSSS
B3: il10ra_site1_sap_21_mot_HHH_b1_07286_af2_000000054_0001_1_19_H_._HHH_b2_02163_0001_0000200006_0000001_0_0001 (protein)
chain: SSSSSIERSLEHMLKAIKRALELGDQEYARRALRFVKWSAKWANDEEVEEEVKELEKELESSSSS
B4: il10ra_site1_normal_mot_HHH_b1_05056_000000217_0001_1_20_H_._HHH_b1_03397_af2_0001_0000100002_0000001_0_af2pred_0001 (protein)
chain: SSSSDEEVEELFKEAEEALKEGDREKASRLVLEAAKLAKELNDEELLQRIFRLLRRIHEASSSSS
B5: il10ra_site1_normal_mot_HHH_b2_02337_000000026_0001_38_52_H_._HHH_b1_06566_af2_0001_0000200012_0000001_0 (protein)
chain: SSSSSDEVEELLKEAEELLEEGNPREAARVAARATHHALRLGDAELLQEVWELVQEIAKLSSSSS
B6: il10ra_site1_normal_mot_HHH_b1_02997_000000220_0001_39_52_H_._HHH_b1_05536_0001_0000200023_0000001_1_af2pred_0001 (protein)
chain: SSSSDEEESREAFEILREALHIDDPEEVEELLERAQELAEEANNTALEINIKFALEHLKRSSSSS
B7: il10ra_site1_normal_mot_HHH_b1_04771_000000013_0001_40_56_H_._HHH_b2_03705_af2_0001_0000300016_0000002_0 (protein)
chain: SSSSNELVQRAAELSLKAFRLALRGNPEEAQEVLKEAEEVAEEGGDERLQRVIRDLLQALSSSSS
B8: il10ra_site1_normal_mot_HHH_b1_07256_000000044_0001_1_17_H_._HHH_eva_0781_0001_0000100004_0000003_0 (protein)
chain: SSSSSDEILEIIQHIARAAFRLGDPRLSELAVLLAEAYREGDEELQREVEELAEEVIKESSSSSS
B9: il10ra_site1_sap_11_mot_HHH_b2_00943_af2_000000149_0001_1_17_H_._HHH_b1_04515_af2_0001_0000200012_0000002_0_0001_af2pred_0001 (protein)
chain: SSSSSDEEEEEVEELLEEAKRIEDPAELAYVLLRAYAVAYRGNNPELRELVEEVAQELVRSSSSS
B10: il10ra_site1_normal_mot_HHH_b2_01205_000000166_0001_1_19_H_._HHH_b1_02799_0001_0000100005_0000002_0 (protein)
chain: SSSSDEENRRVYELIREAFELLEEGDEEEARRILEEAHEIAEEAGNYAALFSVELLLRQLKSSSS

Biological target: il10ra, Q13651
Test: yeast display titration

Apparent Kd, inactive:
B1 no binding seen
B2 no binding seen
B3 no binding seen
B4 no binding seen
B5 no binding seen
B6 > 826 nM
B7 no binding seen
B8 no binding seen
B9 no binding seen
B10 no binding seen
